What was measured:
[1] = system: primary CLL samples (PBMC from CLL patients), HLA class I ligands; test: HLA class I ligandome analysis by LC-MS/MS (frequency of HLA restricted presentation); set-up: species or system human; conditions: for Number of positive CLLs: CLL patient HLA class I ligandomes (n = 30); for Number of positive CLLs (frequency [%]): source protein (LiTAA) representation in CLL patient HLA class I ligandomes (n = 30)
[2] = system: primary CLL samples (PBMC from CLL patients), HLA class II ligands; test: HLA class II ligandome analysis by LC-MS/MS (frequency of HLA restricted presentation); set-up: species or system human; conditions: CLL patients (n=20), source protein
[3] = system: HLA class II (HLA-DR) on CD5+CD19+ CLL cells; test: Quantification of HLA class II surface expression (QIFIKIT flow cytometry) under therapy; assay type: in vivo, human
[4] = system: HLA class I ligandome of CLL patients; test: Longitudinal HLA class I ligandome analysis over the course of therapy (label-free quantification); assay type: in vivo, human; conditions: for detectable LiTAPs showing significant changes in abundance: post versus pre therapy: rituximab/bendamustin 48 h/24 h, alemtuzumab day 7, ofatumumab 24 h; for HLA class I ligands with differential presentation: ≥2-fold change, p≤0.05, post versus pre therapy, single patients

Substance | Number of positive CLLs [1] | also measured
185 (RDSLIDSLT; listed as Homo sapiens) [compound 185] | 1 | 
186 (TVADQVLVGSY; listed as Homo sapiens) [compound 186] | 2 | 
187 (AADTERLAL; listed as Homo sapiens) [compound 187] | 1 | 
188 (DMKAKVASL; listed as Homo sapiens) [compound 188] | 2 | 
189 (HVLEEVQQV; listed as Homo sapiens) [compound 189] | 2 | 
190 (KEAADTERL; listed as Homo sapiens) [compound 190] | 1 | 
191 (RISEVLQKL; listed as Homo sapiens) [compound 191] | 1 | 
192 (TEVRELVSL; listed as Homo sapiens) [compound 192] | 2 | 
193 (AIRSGEAAAK; listed as Homo sapiens) [compound 193] | 2 | 
194 (APNPAPKEL; listed as Homo sapiens) [compound 194] | 4 | 
195 (RQSLLTAI; listed as Homo sapiens) [compound 195] | 1 | 
196 (SPEQTLSPL; listed as Homo sapiens) [compound 196] | 1 | 
197 (TEHQVPSSV; listed as Homo sapiens) [compound 197] | 1 | 
198 (TTYKIVPPK; listed as Homo sapiens) [compound 198] | 1 | 
200 (DETMVIGNY; listed as Homo sapiens) [compound 200] | 1 | 
201 (RQYGSEGRFTF; listed as Homo sapiens) [compound 201] | 1 | 
202 (SPAPRTAL; listed as Homo sapiens) [compound 202] | 6 | 
203 (GPRPITQSEL; listed as Homo sapiens) [compound 203] | 6 | 
204 (KPEPVDKVA; listed as Homo sapiens) [compound 204] | 1 | 
205 (TPSSRPASL; listed as Homo sapiens) [compound 205] | 4 | 

Substance | Number of positive CLLs [1] | also measured
206 (DETQVRSLY; listed as Homo sapiens) [compound 206] | 2 | 
207 (KEEETNSVATL; listed as Homo sapiens) [compound 207] | 1 | 
208 (LEQKVVELY; listed as Homo sapiens) [compound 208] | 2 | 
209 (NPISNAVLNEY; listed as Homo sapiens) [compound 209] | 1 | 
210 (SIKEKSSL; listed as Homo sapiens) [compound 210] | 1 | 
211 (TEITEISTPSL; listed as Homo sapiens) [compound 211] | 1 | 
212 (GRLNSVNNR; listed as Homo sapiens) [compound 212] | 1 | 
214 (TPRTNNIEL; listed as Homo sapiens) [compound 214] | 2 | 
215 (DAMKRVEEI; listed as Homo sapiens) [compound 215] | 3 | 
216 (DIKEVKQNI; listed as Homo sapiens) [compound 216] | 3 | 
217 (GPIYPGHGM; listed as Homo sapiens) [compound 217] | 1 | 
218 (GDYGRAFNL; listed as Homo sapiens) [compound 218] | 2 | 
219 (TRHKIVHTK; listed as Homo sapiens) [compound 219] | 2 | 
220 (RIHTGEKPYK; listed as Homo sapiens) [compound 220] | 1 | 
221 (KAFNWFSTL; listed as Homo sapiens) [compound 221] | 1 | 
222 (QSTQRSLAL; listed as Homo sapiens) [compound 222] | 2 | 
223 (RDLQMNQALRF; listed as Homo sapiens) [compound 223] | 1 | 
224 (RELESQLHVL; listed as Homo sapiens) [compound 224] | 2 | 
225 (SEAEKLTLV; listed as Homo sapiens) [compound 225] | 1 | 
ATP synthase, H+ transporting, mitochondrial Fo complex, subunit C1 [ATP5G1] | 7 | Number of positive CLLs (frequency [%]) [1]: 23.3%

Substance | Number of positive CLLs [1] | also measured
ATP-binding cassette, sub-family A (ABC1), member 6 [ABCA6] | 10 | Number of positive CLLs (frequency [%]) [1]: 33.3%
ATPase, H+ transporting, lysosomal 42 kDa, V1 subunit C1 [ATP6V1C1] | 6 | Number of positive CLLs (frequency [%]) [1]: 20.0%
B-cell linker [BLNK] | 7 | Number of positive CLLs (frequency [%]) [1]: 23.3%
BTB and CNC homology 1, basic leucine zipper transcription factor 2 [BACH2] | 8 | Number of positive CLLs (frequency [%]) [1]: 26.7%
Dmx-like 1 [DMXL1] | 10 | Number of positive CLLs (frequency [%]) [1]: 33.3%
RINEFSISSF (listed as Homo sapiens) [SEQ ID NO: 526] |  | HLA restricted presentation/representation on primary CLL ([1]; CLL versus HV PBMC ligandomes): CLL-exclusive representation
Tu translation elongation factor, mitochondrial [TUFM] | 6 | Number of positive CLLs (frequency [%]) [1]: 20.0%
UDP-Gal:betaGlcNAc beta 1,4-galactosyltransferase, polypeptide 1 [B4GALT1] | 8 | Number of positive CLLs (frequency [%]) [1]: 26.7%; representation frequency in HLA class II ligandomes [2]: 30.0%
alemtuzumab |  | mean HLA class II surface expression ([3]; At7d: 7 d after alemtuzumab, 1 patient): 55,500; detectable LiTAPs showing significant changes in abundance [4]: 12.5%; HLA class I ligands with differential presentation [4]: 33.6%
asunder spermatogenesis regulator | 6 | Number of positive CLLs (frequency [%]) [1]: 20.0%
cadherin, EGF LAG seven-pass G-type receptor 1 [CELSR1] | 11 | Number of positive CLLs (frequency [%]) [1]: 36.7%
dystrophin [DMD] | 7 | Number of positive CLLs (frequency [%]) [1]: 23.3%
eukaryotic translation initiation factor 6 [EIF6] | 6 | Number of positive CLLs (frequency [%]) [1]: 20.0%
major histocompatibility complex, class II, DM alpha [HLA-DMA] | 6 | Number of positive CLLs (frequency [%]) [1]: 20.0%; representation frequency in HLA class II ligandomes [2]: 20%
negative elongation factor complex member E [NELFE] | 6 | Number of positive CLLs (frequency [%]) [1]: 20.0%
ofatumumab |  | detectable LiTAPs showing significant changes in abundance [4]: 20.0%; HLA class I ligands with differential presentation [4]: 21.6%
ribosomal L24 domain containing 1 [RSL24D1] | 6 | Number of positive CLLs (frequency [%]) [1]: 20.0%
rituximab |  | mean HLA class II surface expression ([3]; Rt24h: 24 h after rituximab, 4 patients): 27,500
tumor necrosis factor receptor superfamily, member 13C [TNFRSF13C] | 6 | Number of positive CLLs (frequency [%]) [1]: 20.0%
zinc finger protein 638 [ZNF638] | 7 | Number of positive CLLs (frequency [%]) [1]: 23.3%
